Source: PubChem BioAssay AID493014 (National Center for Advancing Translational Sciences (NCATS), 2011)
The whole screen tested about 340,000 compounds, of which about 170 (0.05%) were called active. Inconclusive means that the source gave no clear call. Such entries were picked first, then a sample of the others. The call rests on the fitted dose curve; in most records, active means well fitted inhibition curve with a large enough effect in the signal ratio, with a control signal flat (not every such curve was filed as active); inconclusive means small, poorly fitted or top-dose-only effect, or effect the other way, or a change in a side signal; inactive means flat fitted curve, though single readings scatter; the % refers to the signal ratio. Potencies beside an inconclusive call are fits to weak or partial responses and may not hold up.

Test: qHTS Assay to Find Inhibitors of Chronic Active B-Cell Receptor Signaling;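 on activity change, negative = inhibition: plate controls were basal doxycycline-induced cells for no effect and cells given 10 µM MG132 for full effect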
Conditions: ABC-DLBCL IkBa-CBG/CBR reporter, luminescence ratio (green luciferase fused to IkBa over red control in TMD8 lymphoma cells), 4 h; activity change, negative = inhibition: at 46.1 µM (top of the series) unless noted
How it was run: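 Concentration-response series (up to 46 uM) were applied to TMD8 dual-reporter cells for 4 h at 37C with doxycycline. Green/red ratio, after filter-overlap correction, defined %Activity; red signal alone was normalised to basal cells and zero luminescence.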
Potency means the concentration at half of the fitted maximal effect.

| Structure (SMILES) | activity change, negative = inhibition | Potency |
| --- | --- | --- |
| CCCCCCCCC1=NCCc2c1[nH]c1ccccc21 | inactive: -8.41% |  |
| CCc1ccc(OCC(=O)N/N=C2\CC(=O)c3ccccc32)cc1 | inconclusive: 16.7% |  |
| O=S1(=O)CC(O)C(N=Nc2c(O)n(Cc3ccccc3)c3ccccc23)C1 (stereo not drawn) |  | inconclusive: 11.2 µM [falling, partial curve, poor fit] |
| NC(=S)N/N=C/c1cc([N+](=O)[O-])ccc1OCCOc1ccccc1 | inconclusive: 24% |  |
| CCCC(c1nnnn1CC1CCCO1)N1CCN(c2nc3ccccc3s2)CC1 (stereo not drawn) | inconclusive: 2.99% |  |
| O=C(COc1ccc(Br)cc1CNCCc1ccccc1)NCc1ccccc1 | inconclusive: 0.0249% |  |
| CCc1cc2c(=O)c(-c3ccc4c(c3)OCCO4)c(C)oc2cc1OS(C)(=O)=O | inconclusive: -17.3% |  |
| C=CCN(C(=O)CNC(=O)c1ccco1)C(C(=O)NC1CCCCC1)c1ccccc1 (stereo not drawn) | inconclusive: -0.831% |  |
| CN(C)C(=O)CNC(=O)CN1C(=O)NC2(CCCc3sccc32)C1=O (stereo not drawn) | inactive: -5.57% |  |
| C=CCN1C(=O)/C(=C/c2ccc(OC(C)=O)c(OCC)c2[N+](=O)[O-])SC1=S | inconclusive: -2.04% |  |
| OCCN(CCO)c1ncnc2c1oc1ccc(Br)cc12 | inconclusive: 9.84% |  |
| COc1ccc(CC(=O)N(C)Cc2cccc(F)c2)cc1S(=O)(=O)N1CCOCC1 | inconclusive: 4.75% |  |
| CCOc1ccc(N/C(=N/c2nc(C)cc(C)n2)NC(C)=O)cc1 | inactive: -3.05% |  |
| O=C(N1CCOCC1)N1CCN(CC(O)COc2ccc3ccccc3c2)CC1 (stereo not drawn) | inactive: -4.13% |  |
| CS(=O)(=O)N1CCC(C(=O)NCCc2ccccc2)CC1 | inconclusive: 10.5% |  |
| O=C(NCC1CCCO1)c1cc2c([nH]c3ccccc32)c(-c2cccc(Cl)c2)n1 (stereo not drawn) |  | inconclusive: 1.26 µM [rising, full curve, poor fit] |
| CCOc1ccccc1NC(=O)c1c(NCc2cccs2)sc2c1CCCCC2 | inconclusive: 23% |  |
| CCC1C(=O)NCCN1Cc1nc(-c2ccc(C)s2)oc1C (stereo not drawn) | inconclusive: 0.0064% |  |
| O=C1CC(Sc2ccc(Cl)cc2)C(=O)N1c1ccc2c(c1)OCCO2 (stereo not drawn) | inconclusive: -7.82% |  |
| CCOC(=O)c1ccc(NC(=O)c2c(C)[nH]c(C(=O)OCC)c2C)cc1 | inconclusive: 0.0636% |  |
| COc1ccc(N2CC(C)Cn3c2nc2c3c(=O)n(Cc3ccc(C)cc3)c(=O)n2C)c(OC)c1 (stereo not drawn) | inconclusive: -8.55% |  |
| COc1cccc(N2CCN(c3nc(C)cc(=O)[nH]3)CC2)c1 | inactive: -5.21% |  |
| O=C(NNC(=O)c1cccs1)c1ccc(Cl)nc1 |  | inconclusive: 18.4 µM [falling, single point] |
| CCOc1ccc(-c2nnc(NC(=O)C3CCCC3)o2)cc1 | inactive: 1.69% |  |
| N#Cc1ccc(S(=O)(=O)Nc2ccccc2N2CCOCC2)cc1 | inconclusive: -1.42% |  |
| Nc1ccc(C(=O)Nc2cccc3ncccc23)cc1 | inactive: -12.3% |  |
| N#Cc1ccc2ccn(CC(=O)NCc3ccco3)c2c1 | inactive: -3.03% |  |

| Structure (SMILES) | activity change, negative = inhibition | Potency |
| --- | --- | --- |
| CCN(CC)C(=O)c1cccc(NC(=O)c2cc(C3CC3)nc3c2cnn3C(C)C)c1 | inconclusive: 6.27% |  |
| CCN1C(=O)/C(=C\c2ccc3c(c2)OCO3)C(C(=O)OC)=C1C |  | inconclusive: 11.2 µM [falling, partial curve] |
| Cc1nc(CS(=O)(=O)c2ccc(Cl)cc2)cc(Sc2ccc(Cl)cc2)n1 | inconclusive: -4.57% |  |
| COc1cc(C(=O)N2c3ccccc3CC2C)cc(OC)c1OC (stereo not drawn) | inconclusive: -3.62% |  |
| Cc1cc(C)c2c(=O)[nH]c(SCC(=O)N3CCOCC3)nc2n1 | inconclusive: 14.9% |  |
| COc1ccc(CN2CCN(C(=O)CCC(=O)Nc3nnc(C(F)(F)F)s3)CC2)cc1F | inconclusive: 3.36% |  |
| CCOc1cc(C(c2c(C)[nH][nH]c2=O)c2c(C)[nH][nH]c2=O)cc(Br)c1OC | inconclusive: -15.2% |  |
| O=C(N/N=C1\CC(c2ccccc2)Oc2ccccc21)c1ccc(O)cc1 (stereo not drawn) |  | inconclusive: 3.16 µM [falling, partial curve] |
| O=C(N/C(=C\c1cccnc1)C(=O)N1CCOCC1)c1ccco1 | inactive: -4.29% |  |
| O=C(COC(=O)c1ccccc1NS(=O)(=O)c1cccs1)NCC12CC3CC(CC(C3)C1)C2 | inconclusive: 0.11% |  |
| CCNc1cc(Cl)nc(SC)n1 | inconclusive: -1.06% |  |
| CCN(Cc1ccccc1)C(=O)c1cc(S(=O)(=O)N2CCOCC2)cn1C | inactive: -1.74% |  |
| O=C(O)CSc1nnnn1-c1ccccc1 | inconclusive: 5.11% |  |
| CN(C)S(=O)(=O)c1cccc(N=C2NN=C(c3ccccc3)CS2)c1 |  | inconclusive: 25.9 µM [rising, partial curve, poor fit] |
| Cc1nc(/N=C\N(C)C)sc1C(=O)Nc1ccccc1 |  | inconclusive: 29.1 µM [falling, single point] |
| N#Cc1ccccc1CN1C(=O)NC2(CCCCCC2)C1=O | inconclusive: 4.65% |  |
| CN1CCN(/N=C/c2nc(-c3cccc([N+](=O)[O-])c3)n3ccccc23)CC1 | inactive: 7.9% |  |
| O=C(CN1CCN(c2ccc(F)cc2)CC1)Nc1cccc(C(F)(F)F)c1 | inconclusive: 5.78% |  |
| CCC(=O)Nc1ccccc1C(=O)OCC(=O)c1ccc2ccccc2c1 | inconclusive: 19.2% |  |
| C=C1CCC[C@]2(C)C[C@H]3OC(=O)C(CN4CCCCC4CO)[C@H]3CC12 (stereo partly drawn) |  | inconclusive: 17.8 µM [falling, partial curve] |
| Cc1ccc2[nH]c(=O)c(Cc3ccccc3)c(O)c2c1 | inconclusive: 5.72% |  |
| O=C1Nc2ccccc2Nc2ccccc21 | inconclusive: -6.91% |  |
| Cc1cc(/C=C2/NC(=S)NC2=O)c(C)n1-c1cccnc1 |  | inconclusive: 11.2 µM [falling, partial curve] |
| Fc1ccccc1-c1nc2ccccc2[nH]1 |  | inconclusive: 3.16 µM [falling, partial curve, poor fit] |
| O=[N+]([O-])c1cc(Br)c(Nc2ccccc2)c([N+](=O)[O-])c1 |  | inconclusive: 35.5 µM [falling, single point] |
| COc1ccc(N(CC(=O)Nc2ccccc2F)S(=O)(=O)c2ccc(C)c([N+](=O)[O-])c2)cc1 | inconclusive: -0.588% |  |

A draw from above in order of heavy-atom count, rising:

| Structure (SMILES) | activity change, negative = inhibition | Potency |
| --- | --- | --- |
| CCNc1cc(Cl)nc(SC)n1 | inconclusive: -1.06% |  |
| O=C(O)CSc1nnnn1-c1ccccc1 | inconclusive: 5.11% |  |
| Cc1ccc2[nH]c(=O)c(Cc3ccccc3)c(O)c2c1 | inconclusive: 5.72% |  |
| N#Cc1ccc2ccn(CC(=O)NCc3ccco3)c2c1 | inactive: -3.03% |  |
| N#Cc1ccccc1CN1C(=O)NC2(CCCCCC2)C1=O | inconclusive: 4.65% |  |
| Cc1cc(C)c2c(=O)[nH]c(SCC(=O)N3CCOCC3)nc2n1 | inconclusive: 14.9% |  |
| N#Cc1ccc(S(=O)(=O)Nc2ccccc2N2CCOCC2)cc1 | inconclusive: -1.42% |  |
| CN(C)C(=O)CNC(=O)CN1C(=O)NC2(CCCc3sccc32)C1=O (stereo not drawn) | inactive: -5.57% |  |
| Cc1nc(CS(=O)(=O)c2ccc(Cl)cc2)cc(Sc2ccc(Cl)cc2)n1 | inconclusive: -4.57% |  |
| O=S1(=O)CC(O)C(N=Nc2c(O)n(Cc3ccccc3)c3ccccc23)C1 (stereo not drawn) |  | inconclusive: 11.2 µM [falling, partial curve, poor fit] |
| O=C(COc1ccc(Br)cc1CNCCc1ccccc1)NCc1ccccc1 | inconclusive: 0.0249% |  |
| CCCC(c1nnnn1CC1CCCO1)N1CCN(c2nc3ccccc3s2)CC1 (stereo not drawn) | inconclusive: 2.99% |  |
| C=CCN(C(=O)CNC(=O)c1ccco1)C(C(=O)NC1CCCCC1)c1ccccc1 (stereo not drawn) | inconclusive: -0.831% |  |
| COc1ccc(CN2CCN(C(=O)CCC(=O)Nc3nnc(C(F)(F)F)s3)CC2)cc1F | inconclusive: 3.36% |  |
| COc1ccc(N(CC(=O)Nc2ccccc2F)S(=O)(=O)c2ccc(C)c([N+](=O)[O-])c2)cc1 | inconclusive: -0.588% |  |
| COc1ccc(N2CC(C)Cn3c2nc2c3c(=O)n(Cc3ccc(C)cc3)c(=O)n2C)c(OC)c1 (stereo not drawn) | inconclusive: -8.55% |  |
